From paper PMC7819943, “Rice protein-binding microarrays: a tool to detect cis-acting elements near promoter regions in rice” come the findings set out here.

By UniProt entry, the sequences of proteins in these tests, tags left out.
UniProt Q0JBA9, entry or part of it: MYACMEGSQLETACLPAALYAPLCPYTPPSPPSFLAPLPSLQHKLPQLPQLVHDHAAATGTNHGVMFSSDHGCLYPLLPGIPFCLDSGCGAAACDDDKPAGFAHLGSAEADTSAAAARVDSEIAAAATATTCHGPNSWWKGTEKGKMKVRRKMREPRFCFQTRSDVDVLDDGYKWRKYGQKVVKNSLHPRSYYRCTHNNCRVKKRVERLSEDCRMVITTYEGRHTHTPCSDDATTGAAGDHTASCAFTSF

This is one part of the list.

The assay has as its target OsWRKY34 (Oryza sativa, UniProt Q0JBA9 1-250). Briefly: protein-binding microarray (RPBM); PBS, 2% BSA, 51.3 ng/ul salmon testes DNA, 50 uM zinc acetate, 200 nM TF, 25 C, 1 h; high values mean tight binding. As to conditions: protein: recombinant; tags: N-terminal polyhistidine and DsRed monomer fusion (pET32a); label: CyDye5-dUTP incorporated in the synthesized complementary strand; 3' TTTTT single-stranded linker to array surface; dsDNA, one strand shown. The method in brief:
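In PBS with 2% BSA, salmon testes DNA and 50 µM zinc acetate, 200 nM protein was incubated on a custom Agilent array at 25 °C for 1 h and then washed off. The array had been made double-stranded by primer extension with Cy5-dUTP and blocked with 2% BSA. The proteins were transcription factors fused N-terminally to polyhistidine and DsRed, expressed in E. coli BL21-CodonPlus and purified on Ni–NTA. The binding signal is per-feature fluorescence intensity (arbitrary units) from an Axon 4000B scanner.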
For “GTAATTTTGTCTTTTCTATTTCTCAATGTGTAGGTTGAATCGGAGTCACCTAGTGCAG”, the binding signal was 9450 fluorescence intensity (a.u.). Under “ATCAATGACTCACATGTGCTGCCCACATGCACGTACTTAACGGAGTCACCTAGTGCAG” stands 8710 fluorescence intensity (a.u.). For “CAACTGATTGGTCTCACACCCGACCTAACGGCTAACGCAACGGAGTCACCTAGTGCAG” the value was 8130 fluorescence intensity (a.u.); for “TTTTTTTTGCCACGTCACATGCTGTTCATCTGAGCAAACGCGGAGTCACCTAGTGCAG”, 8700 fluorescence intensity (a.u.). For “TCTCCTTCCCCGGCAGTTATCTCTCCACCACACCTTTACTCGGAGTCACCTAGTGCAG” the value was 10000 fluorescence intensity (a.u.). On to “ATGTTAGATGAGTGTTTGGTTGGCTTCCACAAGTGTGGTACGGAGTCACCTAGTGCAG”, for which the binding signal is 10900 fluorescence intensity (a.u.).

On to “GAGAGGAGGGGCGTTGCCAGGGAGAAGAGGGGTTGCGGGGCGGAGTCACCTAGTGCAG”, for which the binding signal is 10600 fluorescence intensity (a.u.). As to “AGAGCGTATATTCTTCTATTATACTCCCTCCGTTTTGAGTCGGAGTCACCTAGTGCAG”, the binding signal was 8910 fluorescence intensity (a.u.). Under “AATTCTCCTCTCACCGCCTCTCTTCTCTAACCAAAGTCTACGGAGTCACCTAGTGCAG” stands 9400 fluorescence intensity (a.u.); under “TTGACGGACTCTATCGATCTGTAATCTTCTGCATCAGATTCGGAGTCACCTAGTGCAG”, 9270 fluorescence intensity (a.u.). For “TTTTTTTTCGCGAACTGAACACACCCTAAACTGAGCCTTTCGGAGTCACCTAGTGCAG” the value was 10300 fluorescence intensity (a.u.); for “CGAGGTATATAACTATATATATAGGGCGGGTACCATTCTTCGGAGTCACCTAGTGCAG”, 13700 fluorescence intensity (a.u.); for “TTTTTTTTCATTGTTTTTTTTGTTGTTTTGCGTATCTTAGCGGAGTCACCTAGTGCAG”, 11200 fluorescence intensity (a.u.). For “TTTGATTCGTGACAGGTGGTAGGAGAGCTAATTGTTCCTGCGGAGTCACCTAGTGCAG” the value was 8630 fluorescence intensity (a.u.); for “TTCCGTGTGATCACTCATAGCTGTTCGCCTCATCGCCTATCGGAGTCACCTAGTGCAG”, 9960 fluorescence intensity (a.u.). Turning to “GCGGGTTGGGTAGTGTACACTAGTGTTTGTTTGCTTCGAGCGGAGTCACCTAGTGCAG”, the binding signal is 11600 fluorescence intensity (a.u.). Under “GGAGGTGCAGGGGTGCGGGGATTGGGAGGGGATGCTGGAGCGGAGTCACCTAGTGCAG” stands 14500 fluorescence intensity (a.u.). Under “GTTCTAGTTGCTTGTACCAGTAGTACTTTCATTTCTCACCCGGAGTCACCTAGTGCAG” stands 9140 fluorescence intensity (a.u.); under “ATGTAGATTCTATCTCGATTTTCACTATTACGTTTCGAAACGGAGTCACCTAGTGCAG”, 8480 fluorescence intensity (a.u.); under “GTACCTCTGTCAACCGAACCCGTTGGAGTTGCAGCTTTGCCGGAGTCACCTAGTGCAG”, 8080 fluorescence intensity (a.u.). On to “ACATTTTTTTCTCTCGTTTTGAGAATTGAGAAACCTTTTTCGGAGTCACCTAGTGCAG”, for which the binding signal was 9480 fluorescence intensity (a.u.).

As for “TTGGAGGGGCGAGGTCAGCTGGGGTGTCAAATATGTAAAGCGGAGTCACCTAGTGCAG”, the binding signal is 10600 fluorescence intensity (a.u.). For “GCCCCAACTAATCCGCTTTGATTTCAGCGTGTGTTTCGATCGGAGTCACCTAGTGCAG” the value was 13900 fluorescence intensity (a.u.); for “TGTGGCTTTTTTGACTAGGTCTTCACCCCACGTGGCATTGCGGAGTCACCTAGTGCAG”, 12200 fluorescence intensity (a.u.); for “TGGCAAGTCACCAAGTTGGAACCAAATCATTCGTTGTTTTCGGAGTCACCTAGTGCAG”, 8120 fluorescence intensity (a.u.).

For “GTTTTTTTGCCTCTGACCATTGAATCGCCTTGAGATTTTTCGGAGTCACCTAGTGCAG”, the binding signal is 9360 fluorescence intensity (a.u.). Under “TTCTGAATGTGATTGAATTAATTGGACTTGCGTTGACCTTCGGAGTCACCTAGTGCAG” stands 11700 fluorescence intensity (a.u.); under “TACCGAACCTTTGGCATATTGACCCTTTTGGCCTTTTATACGGAGTCACCTAGTGCAG”, 12200 fluorescence intensity (a.u.); under “GATTAGAATCCGGGTGGGCTGTTTCCACCACAAGAAACTACGGAGTCACCTAGTGCAG”, 8990 fluorescence intensity (a.u.).

Consider “TGCCAAGTTTCTTCTCGCTCGTTCTGTTTTGATCGGCTAACGGAGTCACCTAGTGCAG”, for which the binding signal was 9560 fluorescence intensity (a.u.). For “CTCTCTTCTTTTTATCTTATTCATATGTATTTATAGCTGACGGAGTCACCTAGTGCAG” the value was 10500 fluorescence intensity (a.u.).

For “CGTCATTTCCGTTTGGTGTTGTTGGTCACCCGAGTTGCAACGGAGTCACCTAGTGCAG”, the binding signal was 8820 fluorescence intensity (a.u.). For “TATACTATTTCTTTCTTTTCCACCGTTGACGTTTTAGAACCGGAGTCACCTAGTGCAG”, the binding signal is 10400 fluorescence intensity (a.u.).

For “ACACCTCGCGACGACGACACACATGACACATATCCGTCCACGGAGTCACCTAGTGCAG”, the binding signal was 8740 fluorescence intensity (a.u.). Under “ATGTTTGCTAATCTTTTTTTTGGTGTTTTTCTCCTTGTGACGGAGTCACCTAGTGCAG” stands 10200 fluorescence intensity (a.u.); under “CAATTCAATCTGAGATTTGTACACCATGACATTTTCTTCACGGAGTCACCTAGTGCAG”, 8280 fluorescence intensity (a.u.).

With “GATTTCAAGGCAGTGATCAGCATATATCCGGATGTGGATTCGGAGTCACCTAGTGCAG”, the binding signal is 8040 fluorescence intensity (a.u.). In the case of “TAACTGATTCCGCGCTCTATCTTCCTCGCCTGTCTCCGCACGGAGTCACCTAGTGCAG”, the binding signal was 13800 fluorescence intensity (a.u.). Under “ATTATCGTTAGTTTCGGTCCAACCCTTGTTACGTGCAATCCGGAGTCACCTAGTGCAG” stands 12900 fluorescence intensity (a.u.). As to “CTGCTCTCTCATCTCTTCCGTTTTGTCCATATTCCTTTAACGGAGTCACCTAGTGCAG”, the binding signal was 8050 fluorescence intensity (a.u.). Under “TCGGATGTCCCAAGCTCGCCGCGCCACCTCTGACGGCACCCGGAGTCACCTAGTGCAG” stands 9340 fluorescence intensity (a.u.); under “TTCTGTCGATTGAAGTTTAGCAATTCCGTTATTTTTATTTCGGAGTCACCTAGTGCAG”, 9330 fluorescence intensity (a.u.); under “CTCGAGAGTTATTTATTATTTATATTTCCAAAGGTTTGACCGGAGTCACCTAGTGCAG”, 8400 fluorescence intensity (a.u.). Under “AACAAATACTATTTTTCAGCTTTTCTTTTTTGTTTCCTGACGGAGTCACCTAGTGCAG” stands 8500 fluorescence intensity (a.u.); under “GGGTACTTTTTTTACCCGGCCTTTATATCCAACCGGATATCGGAGTCACCTAGTGCAG”, 8590 fluorescence intensity (a.u.); under “AATGCAGTTTGTTTTCCTTACACATGTTTTTTCTGTGTAACGGAGTCACCTAGTGCAG”, 8480 fluorescence intensity (a.u.). For the sequence “GCACCCACTGCCCAATGAGACAGCACCACCCGCATCATTCCGGAGTCACCTAGTGCAG”, the binding signal was 8190 fluorescence intensity (a.u.). Under “CGGGGCGTGACAGACCATTTCCTTGATATCACTTCAATACCGGAGTCACCTAGTGCAG” stands 11000 fluorescence intensity (a.u.); under “CAGCAGCGAATTTTCAGTCATTTCAAACTGTCGTAGTTATCGGAGTCACCTAGTGCAG”, 8200 fluorescence intensity (a.u.); under “AATTCCTTACGTTGACCATTATTTAAGCCTCAAAATCATCCGGAGTCACCTAGTGCAG”, 10800 fluorescence intensity (a.u.). For “CATCCCGTGGTCACCGCACTTCTCCGGTCGTTCTGGCCGCCGGAGTCACCTAGTGCAG” the value was 8150 fluorescence intensity (a.u.); for “TTCTTTTATCTGCTCTTTTCTTGAACATGTCGTTAGACCTCGGAGTCACCTAGTGCAG”, 13500 fluorescence intensity (a.u.). As for “GTTATTTTCTTCCCTTTCCTAACTTCTATCCATTCGTTTTCGGAGTCACCTAGTGCAG”, the binding signal was 16000 fluorescence intensity (a.u.). Under “TGGAAGGGGCAGGTTCGAGGTGCTGTCTGGGTATGTCAATCGGAGTCACCTAGTGCAG” stands 11500 fluorescence intensity (a.u.).
